Experimental data published in patent publication US10561661B2, “Purine derivative compounds for medical use” (MANROS THERAPEUTICS, priority 2014, dated 2020).

The chains behind the UniProt entries cited, without tags or fusion partners. Where a name states a change or a piece, a line headed by the entry shows the natural chain unless it says otherwise. A line that says so, or that is headed by a name, gives the form on record, which may keep a tag or linker.
UniProt P13569, with tags, fused parts or gaps DEL508-508: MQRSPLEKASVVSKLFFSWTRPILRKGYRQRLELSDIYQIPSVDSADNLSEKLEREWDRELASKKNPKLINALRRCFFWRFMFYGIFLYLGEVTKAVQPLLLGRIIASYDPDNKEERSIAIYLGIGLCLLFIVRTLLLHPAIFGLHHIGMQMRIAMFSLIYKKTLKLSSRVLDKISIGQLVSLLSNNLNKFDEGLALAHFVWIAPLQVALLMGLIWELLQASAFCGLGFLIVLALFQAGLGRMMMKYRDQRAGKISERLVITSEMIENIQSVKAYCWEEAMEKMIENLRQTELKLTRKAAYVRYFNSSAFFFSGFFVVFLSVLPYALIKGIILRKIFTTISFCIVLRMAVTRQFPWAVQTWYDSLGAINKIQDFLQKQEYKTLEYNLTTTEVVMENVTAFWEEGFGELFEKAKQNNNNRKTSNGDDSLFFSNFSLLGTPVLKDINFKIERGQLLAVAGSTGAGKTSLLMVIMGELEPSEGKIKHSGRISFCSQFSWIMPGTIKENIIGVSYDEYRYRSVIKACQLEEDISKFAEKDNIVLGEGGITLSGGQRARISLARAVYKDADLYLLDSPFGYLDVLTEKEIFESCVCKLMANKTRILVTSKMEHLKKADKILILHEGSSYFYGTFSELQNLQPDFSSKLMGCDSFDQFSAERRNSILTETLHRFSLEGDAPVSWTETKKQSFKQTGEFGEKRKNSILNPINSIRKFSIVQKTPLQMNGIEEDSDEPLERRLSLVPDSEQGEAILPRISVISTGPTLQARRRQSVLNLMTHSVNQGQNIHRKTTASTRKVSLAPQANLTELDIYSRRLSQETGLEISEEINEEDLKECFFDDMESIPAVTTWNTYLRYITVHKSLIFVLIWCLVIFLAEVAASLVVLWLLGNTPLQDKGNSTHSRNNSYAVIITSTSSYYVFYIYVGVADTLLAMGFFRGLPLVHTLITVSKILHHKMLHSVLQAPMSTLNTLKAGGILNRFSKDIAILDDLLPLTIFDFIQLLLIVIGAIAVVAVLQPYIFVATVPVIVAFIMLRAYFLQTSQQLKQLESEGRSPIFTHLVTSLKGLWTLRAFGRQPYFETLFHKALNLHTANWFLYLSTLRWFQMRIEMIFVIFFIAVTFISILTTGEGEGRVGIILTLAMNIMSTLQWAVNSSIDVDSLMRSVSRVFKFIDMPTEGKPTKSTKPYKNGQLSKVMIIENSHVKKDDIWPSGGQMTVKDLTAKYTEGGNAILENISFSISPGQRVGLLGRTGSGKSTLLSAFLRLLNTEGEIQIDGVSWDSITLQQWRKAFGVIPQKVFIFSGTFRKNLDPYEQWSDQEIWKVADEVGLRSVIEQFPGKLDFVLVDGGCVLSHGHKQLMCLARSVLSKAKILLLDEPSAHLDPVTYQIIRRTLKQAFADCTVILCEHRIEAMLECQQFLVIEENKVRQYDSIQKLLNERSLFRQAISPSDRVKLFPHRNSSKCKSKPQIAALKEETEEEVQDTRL

Tests used:
GSK-3α/β = assay: IC50 towards inhibition of various kinases: GSK-3α/β; format: biochemical
Δ508F CFTR = Δ508F CFTR (Homo sapiens, UniProt P13569, DEL508-508); details: WO 2006/042949; cited from earlier work

## CC[C@H](CO)Nc1nc(NCc2ccccc2)c2ncn(C(C)C)c2n1 [(R)-roscovitine, 2-(R)-(1-ethyl-2-hydroxyethylamino)-6-benzylamino-9-isopropylpurine, reference compound]
GSK-3α/β
  IC50: 51 µM
Δ508F CFTR
  rescue of Δ508F CFTR plasma membrane translocation: rescue some Δ508F CFTR plasma membrane translocation
